The list shows only some results of the screen, not a fair sample: it gathers some chemical classes. Other doses and runs of a compound may be missing. T/C gives the treated animals as a percentage of the vehicle group. Some doses have a count of surviving animals in place of a T/C: the source files T/C as zero there, which appears to mark a toxic dose or a test without result, not a measured value. Some survivor counts are full or nearly so, which does not show that the dose was tolerated: the source hardly ever lists a survival T/C far under the control, and the zero likely stands for such cases as well. Survivors were counted at the toxicity check, usually on the fifth day, unless a day is given; later deaths do not show. Schedule codes are those of the source, read here as Q, the interval in days (D) or hours (H), X, the number of doses. Where survival is the endpoint, this PubChem deposit counts one and a half times the control or more as active, and values a quarter to a half above the control carry no call in these data; other NCI protocols may use other cut-offs. Additions like (4×) give the number of equal values in this list. Some entries were tested several times; the results are listed from low to high. Some T/C values carry the count of animals alive at the toxicity check (mostly the fifth day); where neither a count nor a note follows, no animal had died by that day.
System: L1210 leukemia ip in BDF1 mice, survival T/C
Experiment: NCI In Vivo Anticancer Drug Screen. Data for tumor model L1210 Leukemia (intraperitoneal) in B6D2F1 (BDF1) mice
Conditions: T/C endpoint: mean survival time, higher T/C = longer survival

In the case of COC1OC(CNCCCl)C2OC(C)(C)OC12 (stereo unspecified), the T/C (dose: 1.0 mg/kg/injection, schedule: Q01DX015 (ip), vehicle: saline) was 123 % of control, the T/C (dose: 1.6 mg/kg/injection, schedule: Q01DX015 (ip), vehicle: saline) was 123 % of control and the T/C (dose: 2.4 mg/kg/injection, schedule: Q01DX015 (ip), vehicle: saline) was 129 % of control. The T/C (dose: 3.1 mg/kg/injection, schedule: Q01DX015 (ip), vehicle: saline) was 93, 97, 102 % of control, the T/C (dose: 3.6 mg/kg/injection, schedule: Q01DX015 (ip), vehicle: saline) was 134 and 138 % of control and the T/C (dose: 5.5 mg/kg/injection, schedule: Q01DX015 (ip), vehicle: saline) was 142 % of control. The survivor count (dose: 6.25 mg/kg/injection, schedule: Q01DX009 (ip), vehicle: water) was 10 of 10, the T/C (dose: 6.25 mg/kg/injection, schedule: Q01DX015 (ip), vehicle: clinical formulation) was 94 and 102 % of control and the T/C (dose: 6.25 mg/kg/injection, schedule: Q01DX015 (ip), vehicle: saline, evaluated on day 30) was 96, 98, 112 % of control. The T/C (dose: 6.25 mg/kg/injection, schedule: Q01DX015 (ip), vehicle: saline, run until all animals had died) was 97 % of control, the T/C (dose: 6.25 mg/kg/injection, schedule: Q01DX015 (ip), vehicle: water) was 100 and 102 % of control and the T/C (dose: 8.0 mg/kg/injection, schedule: Q03HX024 (ip), vehicle: saline) was 101 % of control. For the same compound, the T/C (dose: 8.3 mg/kg/injection, schedule: Q01DX015 (ip), vehicle: saline) was 139 % of control, the T/C (dose: 12.5 mg/kg/injection, schedule: Q01DX009 (ip), vehicle: water) was 103 % of control and the T/C (dose: 12.5 mg/kg/injection, schedule: Q01DX015 (ip), vehicle: clinical formulation) was 94 and 97 % of control. The T/C (dose: 12.5 mg/kg/injection, schedule: Q01DX015 (ip), vehicle: saline, evaluated on day 30) was 94, 95, 96, 102, 103, 107, 172, 221 % of control, the T/C (dose: 12.5 mg/kg/injection, schedule: Q01DX015 (ip), vehicle: saline, run until all animals had died) was 93 % of control and the T/C (dose: 12.5 mg/kg/injection, schedule: Q01DX015 (ip), vehicle: water) was 97 and 105 % of control. For the same compound, the T/C (dose: 16.0 mg/kg/injection, schedule: Q01DX006 (iv), vehicle: saline) was 95 % of control, the T/C (dose: 16.0 mg/kg/injection, schedule: Q01DX009 (ip), vehicle: saline) was 102 % of control and the T/C (dose: 16.0 mg/kg/injection, schedule: Q01DX009 (sc), vehicle: saline) was 103 % of control. The T/C (dose: 16.0 mg/kg/injection, schedule: Q03HX008 (ip), vehicle: saline) was 107 % of control, the T/C (dose: 16.0 mg/kg/injection, schedule: Q03HX016 (ip), vehicle: saline) was 98 % of control and the T/C (dose: 16.0 mg/kg/injection, schedule: Q03HX024 (ip), vehicle: saline) was 96 % of control. For the same compound, the T/C (dose: 25.0 mg/kg/injection, schedule: Q01DX009 (ip), vehicle: water) was 101 % of control, the T/C (dose: 25.0 mg/kg/injection, schedule: Q01DX015 (ip), vehicle: clinical formulation) was 94 and 100 % of control and the T/C (dose: 25.0 mg/kg/injection, schedule: Q01DX015 (ip), vehicle: saline, evaluated on day 30) was 100 (2×), 107, 182 % of control. For the same compound, the T/C (dose: 25.0 mg/kg/injection, schedule: Q01DX015 (ip), vehicle: saline, run until all animals had died) was 109 and 114 % of control, the T/C (dose: 25.0 mg/kg/injection, schedule: Q01DX015 (ip), vehicle: water) was 98 [5 of 6 alive] and 100 % of control and the T/C (dose: 32.0 mg/kg/injection, schedule: Q01DX005 (ip), vehicle: saline) was 105 % of control. For the same compound, the T/C (dose: 32.0 mg/kg/injection, schedule: Q01DX006 (iv), vehicle: saline) was 101 % of control, the T/C (dose: 32.0 mg/kg/injection, schedule: Q01DX009 (ip), vehicle: saline) was 103 % of control and the T/C (dose: 32.0 mg/kg/injection, schedule: Q01DX009 (sc), vehicle: saline) was 98 % of control. The T/C (dose: 32.0 mg/kg/injection, schedule: Q03HX008 (ip), vehicle: saline) was 107 % of control, the T/C (dose: 32.0 mg/kg/injection, schedule: Q03HX016 (ip), vehicle: saline) was 95 % of control and the T/C (dose: 32.0 mg/kg/injection, schedule: Q03HX024 (ip), vehicle: saline) was 100 % of control. For the same compound, the T/C (dose: 50.0 mg/kg/injection, schedule: Q01DX005 (ip), vehicle: saline) was 102 % of control (2×), the T/C (dose: 50.0 mg/kg/injection, schedule: Q01DX009 (ip), vehicle: water) was 103 % of control and the T/C (dose: 50.0 mg/kg/injection, schedule: Q01DX015 (ip), vehicle: clinical formulation) was 96 and 103 % of control. The T/C (dose: 50.0 mg/kg/injection, schedule: Q01DX015 (ip), vehicle: saline, evaluated on day 30) was 98 (2×), 101, 103, 104 (2×), 210 % of control, the T/C (dose: 50.0 mg/kg/injection, schedule: Q01DX015 (ip), vehicle: saline, run until all animals had died) was 110 and 121 % of control and the T/C (dose: 50.0 mg/kg/injection, schedule: Q01DX015 (ip), vehicle: water) was 96 and 97 % of control. For the same compound, the T/C (dose: 64.0 mg/kg/injection, schedule: Q01DX005 (ip), vehicle: saline) was 100 % of control, the T/C (dose: 64.0 mg/kg/injection, schedule: Q01DX006 (iv), vehicle: saline) was 98 % of control and the T/C (dose: 64.0 mg/kg/injection, schedule: Q01DX009 (ip), vehicle: saline) was 102 % of control. The T/C (dose: 64.0 mg/kg/injection, schedule: Q01DX009 (oral), vehicle: saline) was 97 % of control, the T/C (dose: 64.0 mg/kg/injection, schedule: Q01DX009 (sc), vehicle: saline) was 95 % of control and the T/C (dose: 64.0 mg/kg/injection, schedule: Q03HX008 (ip), vehicle: saline) was 102 % of control. The T/C (dose: 64.0 mg/kg/injection, schedule: Q03HX016 (ip), vehicle: saline) was 100 % of control, the T/C (dose: 64.0 mg/kg/injection, schedule: Q03HX024 (ip), vehicle: saline) was 96 % of control and the T/C (dose: 64.0 mg/kg/injection, schedule: Q04DX003 (ip), vehicle: saline) was 95 % of control. The T/C (dose: 100.0 mg/kg/injection, schedule: Q01DX005 (ip), vehicle: saline) was 103 and 105 % of control, the T/C (dose: 100.0 mg/kg/injection, schedule: Q01DX009 (ip), vehicle: water) was 100 % of control and the T/C (dose: 100.0 mg/kg/injection, schedule: Q01DX015 (ip), vehicle: clinical formulation) was 94 and 103 % of control. The T/C (dose: 100.0 mg/kg/injection, schedule: Q01DX015 (ip), vehicle: saline, evaluated on day 30) was 93, 96, 107, 131 % of control and the T/C (dose: 100.0 mg/kg/injection, schedule: Q01DX015 (ip), vehicle: saline, run until all animals had died) was 128 and 140 % of control.
